Measured values as given in PubChem BioAssay AID977622 (Broad Institute, 2014).
Among all 1,900 compounds or so, fewer than 10 were called active. Inconclusive means that the source gave no clear call. Such entries were picked first, then a sample of the others.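 The calls were made as follows: active = Green signal of the normal strain falls at least twice as much as red signal of the resistant mutant, with overall culture growth loss under a set limit; inconclusive = no clear call, values can overlap the other calls; inactive = the rest.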

Experiment: wild-type E. coli growth inhibition versus h38 humanized strain – h38 mutant RFP, wild-type GFP, cherry-pick, dose response (AID 977622)
Settings: E. coli WT ribosome GFP fluorescence, mixed culture, 24 h; at 50 µM (top of the series)

For `Cc1ccc(CCN2C(=O)c3ccccc3C2C(=O)NCc2cccnc2)cc1` (stereo unspecified), which activity change, negative = inhibition is on record?
The activity change, negative = inhibition was inconclusive: 1.69.

Which activity change, negative = inhibition does the source give for `CC1(C(=O)Nc2ccc3c(c2)OCCO3)CSCC(=O)N1CCOc1ccccc1` (stereo unspecified) here?
The activity change, negative = inhibition was inconclusive: -9.24.

Which activity change, negative = inhibition does the source give for `O=C(O)c1ccccc1NC(=O)C(c1ccccc1)c1ccccc1` here?
Its activity change, negative = inhibition is inconclusive: -20.3.

Which activity change, negative = inhibition does the source give for `O=C(O)c1ccc(COc2ccc3ccccc3c2)o1` here?
The activity change, negative = inhibition was inconclusive: -16.1.

Which activity change, negative = inhibition does the source give for `S=c1[nH]c2cc(Cl)ccc2s1` here?
The activity change, negative = inhibition was inconclusive: -8.31.

With `C[C@@H]1CN([C@@H](C)CO)C(=O)c2cc(NC(=O)Nc3cccc4ccccc34)ccc2O[C@@H](C)CCCCO[C@H]1CN(C)C` as the compound, how does the activity change, negative = inhibition read?
The activity change, negative = inhibition was inactive: -0.964.

Which activity change, negative = inhibition does the source give for `O=C(Cc1cccc(NC(=O)C2CCCN(C(=O)CCc3ccccc3)C2)c1)Nc1cccc(C(=O)N2CCCCC2)c1` (stereo unspecified) here?
The activity change, negative = inhibition was inconclusive: 0.01.

With `Cn1c(SCC(=O)Nc2ccccc2-c2ccccc2)nnc1-c1ccco1` as the compound, how does the activity change, negative = inhibition read?
Its activity change, negative = inhibition is inconclusive: 2.56.

Which activity change, negative = inhibition does the source give for `CNC(=O)c1sc(-c2ccccn2)nc1C` here?
The activity change, negative = inhibition was inconclusive: -15.3.

For `C[C@@H]1CCCCO[C@@H](CN(C)C(=O)CCCN(C)C)[C@H](C)CN([C@@H](C)CO)C(=O)c2cc(NC(=O)Nc3cccc4ccccc34)ccc2O1`, which activity change, negative = inhibition is on record?
The activity change, negative = inhibition was inconclusive: 9.24.

For `CC(C)(C)CC(=O)Nc1ccccc1N1CCN(c2ccccc2)CC1`, which activity change, negative = inhibition is on record?
Its activity change, negative = inhibition is inconclusive: -15.6.

With `O=S(=O)(NCC1CCCO1)c1ccc(-c2ccc(Cl)cc2)cc1` (stereo unspecified) as the compound, how does the activity change, negative = inhibition read?
The activity change, negative = inhibition was inconclusive: -32.3.

Which activity change, negative = inhibition does the source give for `Cc1[nH]nc2c1C(c1ccc(Br)cc1)N(Cc1ccccc1)C2=O` (stereo unspecified) here?
The activity change, negative = inhibition was inconclusive: -38.

For `Nc1ccc2nc(-c3ccc(Cl)cc3)[nH]c2c1`, which activity change, negative = inhibition is on record?
The activity change, negative = inhibition was inactive: 2.58.

With `COc1ccccc1NC(=O)CSc1ncc(CO)n1Cc1ccc(F)cc1` as the compound, how does the activity change, negative = inhibition read?
The activity change, negative = inhibition was inactive: -6.13.

For `Cn1c(=O)c2c(-c3ccccc3)n(-c3cc([N+](=O)[O-])ccc3N)cc2n(C)c1=O`, which activity change, negative = inhibition is on record?
The activity change, negative = inhibition was inconclusive: -15.5.

For `Cc1ccc(C)c(N(CC(=O)NC2CCCC2)C(=O)c2oc(C(C)(C)C)cc2C)c1`, which activity change, negative = inhibition is on record?
The activity change, negative = inhibition was inactive: -6.13.

With `CCOc1ccc2oc(C(=O)NC3CCN(Cc4ccccc4)CC3)c(C)c2c1` as the compound, how does the activity change, negative = inhibition read?
Its activity change, negative = inhibition is inconclusive: -15.3.

With `COc1ccc(-c2nnc(COc3ccc(Br)cc3C)o2)cc1` as the compound, how does the activity change, negative = inhibition read?
The activity change, negative = inhibition was inconclusive: -24.5.

Which activity change, negative = inhibition does the source give for `C=CCn1c(SCC(=O)Nc2ccc3c(c2)OCCO3)nnc1-c1ccco1` here?
The activity change, negative = inhibition was inconclusive: -9.04.

With `CS(=O)(=O)N1CC2CCCN2c2ccc(C(F)(F)F)cc21` (stereo unspecified) as the compound, how does the activity change, negative = inhibition read?
The activity change, negative = inhibition was inactive: -0.335.

For `CN(CCOc1ccccc1)C(=O)c1ccc(OC2CCN(C(=O)C3CC3)CC2)cc1`, which activity change, negative = inhibition is on record?
The activity change, negative = inhibition was inconclusive: -23.1.

With `COc1ccc(NC(=O)CN(c2ccccc2OC)S(=O)(=O)c2cccs2)cc1Cl` as the compound, how does the activity change, negative = inhibition read?
The activity change, negative = inhibition was inactive: -2.64.

Which activity change, negative = inhibition does the source give for `CN1C(=O)c2cc(NC(=O)c3cccc(F)c3)ccc2OC[C@H]2O[C@@H](CC(=O)NCC3CCCCC3)CC[C@@H]21` here?
The activity change, negative = inhibition was inactive: -6.76.

For `CN(C)CCCN(C(=O)CCSc1ccccc1)c1nc2cc3c(cc2s1)OCO3`, which activity change, negative = inhibition is on record?
Its activity change, negative = inhibition is inconclusive: -0.384.

With `O=C(Nc1cc(F)ccc1F)N1C[C@@H]2[C@H](c3ccccc31)[C@H](CO)N2Cc1ccncc1` as the compound, how does the activity change, negative = inhibition read?
Its activity change, negative = inhibition is inconclusive: -0.143.

With `CCOc1ccc(S(=O)(=O)N(C)c2ccc(OCC(=O)Nc3ccc4[nH]c(=O)[nH]c4c3)cc2)cc1` as the compound, how does the activity change, negative = inhibition read?
The activity change, negative = inhibition was inconclusive: -25.8.

Which activity change, negative = inhibition does the source give for `Cc1cccc(NC(=O)COc2cccc3c2CCNC3=O)c1` here?
Its activity change, negative = inhibition is inconclusive: 21.

Which activity change, negative = inhibition does the source give for `O=C(CCCn1c(=S)[nH]c2ccsc2c1=O)Nc1ccc2c(c1)OCCO2` here?
The activity change, negative = inhibition was inconclusive: -20.3.

With `COC(=O)c1sccc1NC(=O)Cn1nnc(-c2ccccc2C)n1` as the compound, how does the activity change, negative = inhibition read?
The activity change, negative = inhibition was inconclusive: -11.5.

For `COc1ccc(S(=O)(=O)n2cccc2)cc1`, which activity change, negative = inhibition is on record?
The activity change, negative = inhibition was inconclusive: 15.4.

With `Cc1onc(-c2c(Cl)cccc2Cl)c1C(=O)Nc1ccc(Cl)cn1` as the compound, how does the activity change, negative = inhibition read?
The activity change, negative = inhibition was inconclusive: -6.38.

Which activity change, negative = inhibition does the source give for `C[C@@H]1CN([C@H](C)CO)C(=O)c2c(c3ccccc3n2C)-c2ccccc2CO[C@@H]1CN(C)C(=O)CCN(C)C` here?
Its activity change, negative = inhibition is inconclusive: 20.2.

Which activity change, negative = inhibition does the source give for `NC(=O)c1cc(C(=O)c2ccc(Cl)cc2)c[nH]1` here?
The activity change, negative = inhibition was inactive: -7.02.

For `Nc1nc(Nc2ccccc2F)nc(N2CCOCC2)c1[N+](=O)[O-]`, which activity change, negative = inhibition is on record?
Its activity change, negative = inhibition is inconclusive: -37.6.

With `CCn1c(CCCOc2ccc(Cl)cc2Cl)n[nH]c1=S` as the compound, how does the activity change, negative = inhibition read?
The activity change, negative = inhibition was inconclusive: -48.4.

For `O=C(Nc1ccc(Cl)c(Cl)c1)N[C@@H]1CC[C@@H](CCn2cc(C3CCCCC3)nn2)O[C@H]1CO`, which activity change, negative = inhibition is on record?
Its activity change, negative = inhibition is inconclusive: -7.55.

Which activity change, negative = inhibition does the source give for `COc1cccc(S(=O)(=O)N2CCCCN3[C@H](CO)[C@H](c4ccc(C5=CCCCC5)cc4)[C@H]3C2)c1` here?
The activity change, negative = inhibition was inconclusive: -9.51.

For `O=C(Cc1ccc(NC(=O)C2CCCN(C(=O)CCc3ccccc3)C2)cc1)Nc1cccc(C(=O)N2CCCC2)c1` (stereo unspecified), which activity change, negative = inhibition is on record?
Its activity change, negative = inhibition is inconclusive: -10.9.

With `COc1ccccc1CC(=O)NCc1csc(-c2cccs2)n1` as the compound, how does the activity change, negative = inhibition read?
Its activity change, negative = inhibition is inconclusive: -8.74.

For `Cc1noc(C)c1NC(=O)Nc1ccc2c(c1)C(=O)N([C@@H](C)CO)C[C@H](C)[C@H](CN(C)C(=O)Nc1ccc3c(c1)OCO3)OCCCC[C@H](C)O2`, which activity change, negative = inhibition is on record?
Its activity change, negative = inhibition is inconclusive: 5.05.

With `O=C(NOCc1ccccc1)c1coc(-c2ccccc2)n1` as the compound, how does the activity change, negative = inhibition read?
Its activity change, negative = inhibition is inconclusive: 3.52.

With `CC(C)(C)c1ccc(N2C(=O)CSC2c2cccnc2)cc1` (stereo unspecified) as the compound, how does the activity change, negative = inhibition read?
Its activity change, negative = inhibition is inconclusive: 7.93.

Which activity change, negative = inhibition does the source give for `CC1CCCCN1C(=O)C1CCCN(S(=O)(=O)c2cccc3nsnc23)C1` (stereo unspecified) here?
The activity change, negative = inhibition was inconclusive: -4.37.

With `O=C(Nc1ccc(Cl)c(Cl)c1)N[C@H]1CC[C@@H](CCn2cc(C3CCCCC3)nn2)O[C@@H]1CO` as the compound, how does the activity change, negative = inhibition read?
The activity change, negative = inhibition was inconclusive: -36.2.

Which activity change, negative = inhibition does the source give for `O=C(c1ccccc1)N(c1ccccc1)c1nccc2ccccc12` here?
Its activity change, negative = inhibition is inactive: -10.5.

Which activity change, negative = inhibition does the source give for `C[C@@H]1CN([C@@H](C)CO)C(=O)c2cccc(NC(=O)Nc3ccccc3)c2O[C@@H]1CN(C)S(=O)(=O)c1ccc(Cl)cc1` here?
The activity change, negative = inhibition was inconclusive: -18.2.

Which activity change, negative = inhibition does the source give for `O=C(NCc1cccnc1)c1ccc(COc2ccc3c(c2)CCC3)o1` here?
Its activity change, negative = inhibition is inconclusive: -20.

Which activity change, negative = inhibition does the source give for `O=C(C[n+]1cc(-c2ccc(F)cc2)n2c1CCC2)c1cccs1` here?
The activity change, negative = inhibition was inactive: 13.2.

Which activity change, negative = inhibition does the source give for `CCOC(=O)C1CCCN(Cc2c(Cl)cccc2Cl)C1` (stereo unspecified) here?
Its activity change, negative = inhibition is inconclusive: -12.

With `COc1ccccc1-c1cc2nc(NCCc3ccncc3)ccn2n1` as the compound, how does the activity change, negative = inhibition read?
Its activity change, negative = inhibition is inconclusive: -29.8.
